{"source": "the supplement of paper PMC8728848", "binders": {"B1": {"name": "GST-Gap1 (Streptococcus parasanguinis), A1C3L5 (protein)", "chain": "MFYFVPSWYNGQRQWYYDTPWWFRVKNRMTFDDSVNQVKMFLQGQEEIGLMILNYQPQLRYFLHKQNIFGIYYWSFFDDIQNITRSYTKIIHLKDLNWPEGCEFLYSPFAVVVRLKGEIFAIVNYAEDGNLHSVSFQKNGKVTKDYIFDDRGFLSSILYYDIDERPLYQDYLNINGVWQVREFLKKENDPTPILMINDFSDQTFSKKYYNGWEELIKERLAIFQNNHVENEDVFVLASDTQHNQLVSSIFKEHRKIYSFFGNRFNLENLGQDRISINDATFLVVDTEKNEELLRKTCENLVFKSIPIVRLSPFDSRLRLGHSQTVKEQIIYFHIDNIELDELYSVIAIILELMTLHLDIELRIVTFRQDFQLDLLKTWIIDFIKTNHFEDLLFKQISEGENEIEDEGEIELSRIAMECFTNENQIIKCLDTARLVIDLGIEPDLYTQIASISAGIPQINRVSSDYVIHQKNGLVISDISKLSSAIEFYFDGLFNWNEALIYAVRKMSDYTSGKILKQWKGMLKKK"}}, "experiment_in_all_cases": "glycan array binding signal (z-score within array); higher = stronger binding", "conditions_in_all_cases": "glycan notation: IUPAC condensed, linker removed", "key": {"[1]": {"target": "GlcNAc(b1-2)[GlcNAc(b1-4)]Man(a1-3)[GlcNAc(b1-2)Man(a1-6)]Man(b1-4)GlcNAc(b1-4)GlcNAc", "in_short": "(§1)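 Columns mapping to the same glycan were averaged after glycan names were converted to IUPAC-condensed notation. The data come from 3228 arrays in the Consortium for Functional Glycomics database, limited to those with an available protein sequence. Binding is reported as a within-array Z-score averaged across arrays of one protein sequence and across linkers.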"}, "[2]": {"target": "GlcNAc(b1-2)[GlcNAc(b1-4)]Man(a1-3)[GlcNAc(b1-4)][GlcNAc(b1-2)Man(a1-6)]Man(b1-4)GlcNAc(b1-4)GlcNAc", "in_short": "as §1"}, "[3]": {"target": "GlcNAc(b1-2)[GlcNAc(b1-4)]Man(a1-3)[GlcNAc(b1-4)][GlcNAc(b1-2)[GlcNAc(b1-6)]Man(a1-6)]Man(b1-4)GlcNAc(b1-4)GlcNAc", "in_short": "as §1"}, "[4]": {"target": "GlcNAc(b1-2)[GlcNAc(b1-4)]Man(a1-3)[GlcNAc(b1-4)][GlcNAc(b1-2)[GlcNAc(b1-6)]Man(a1-6)]Man(b1-4)GlcNAc(b1-4)[Fuc(a1-6)]GlcNAc", "in_short": "as §1"}, "[5]": {"target": "GlcNAc(b1-2)[GlcNAc(b1-6)]Man(a1-6)[GlcNAc(b1-2)Man(a1-3)]Man(b1-4)GlcNAc(b1-4)GlcNAc", "in_short": "as §1"}, "[6]": {"target": "GlcNAc(b1-2)[GlcNAc(b1-6)]Man(a1-6)[GlcNAc(b1-2)Man(a1-3)]Man(b1-4)GlcNAc(b1-4)[Fuc(a1-6)]GlcNAc", "in_short": "as §1"}, "[7]": {"target": "GlcNAc(b1-2)[GlcNAc(b1-6)]Man(a1-6)[GlcNAc(b1-2)Man(a1-3)][GlcNAc(b1-4)]Man(b1-4)GlcNAc(b1-4)GlcNAc", "in_short": "as §1"}, "[8]": {"target": "GlcNAc(b1-2)[GlcNAc(b1-6)]Man(a1-6)[GlcNAc(b1-4)][GlcNAc(b1-2)Man(a1-3)]Man(b1-4)GlcNAc(b1-4)GlcNAc", "in_short": "as §1"}, "[9]": {"target": "GlcNAc(b1-3)Fuc", "in_short": "as §1"}, "[10]": {"target": "GlcNAc(b1-3)Gal", "in_short": "as §1"}, "[11]": {"target": "GlcNAc(b1-3)Gal(b1-3)GalNAc", "in_short": "as §1"}, "[12]": {"target": "GlcNAc(b1-3)Gal(b1-4)Glc", "in_short": "as §1"}, "[13]": {"target": "GlcNAc(b1-3)Gal(b1-4)GlcNAc", "in_short": "as §1"}, "[14]": {"target": "GlcNAc(b1-3)Gal(b1-4)GlcNAc(b1-2)Man(a1-3)[GlcNAc(b1-3)Gal(b1-4)GlcNAc(b1-2)Man(a1-6)]Man(b1-4)GlcNAc(b1-4)GlcNAc", "in_short": "as §1"}, "[15]": {"target": "GlcNAc(b1-3)Gal(b1-4)GlcNAc(b1-2)Man(a1-3)[GlcNAc(b1-3)Gal(b1-4)GlcNAc(b1-2)Man(a1-6)]Man(b1-4)GlcNAc(b1-4)[Fuc(a1-6)]GlcNAc", "in_short": "as §1"}, "[16]": {"target": "GlcNAc(b1-3)Gal(b1-4)GlcNAc(b1-2)[GlcNAc(b1-3)Gal(b1-4)GlcNAc(b1-6)]Man(a1-6)[GlcNAc(b1-3)Gal(b1-4)GlcNAc(b1-2)Man(a1-3)]Man(b1-4)GlcNAc(b1-4)GlcNAc", "in_short": "as §1"}, "[17]": {"target": "GlcNAc(b1-3)Gal(b1-4)GlcNAc(b1-3)Gal(b1-4)GlcNAc", "in_short": "as §1"}, "[18]": {"target": "GlcNAc(b1-3)Gal(b1-4)GlcNAc(b1-3)Gal(b1-4)GlcNAc(b1-2)Man(a1-3)[GlcNAc(b1-3)Gal(b1-4)GlcNAc(b1-3)Gal(b1-4)GlcNAc(b1-2)Man(a1-6)]Man(b1-4)GlcNAc(b1-4)GlcNAc", "in_short": "as §1"}, "[19]": {"target": "GlcNAc(b1-3)Gal(b1-4)GlcNAc(b1-3)Gal(b1-4)GlcNAc(b1-2)Man(a1-3)[GlcNAc(b1-3)Gal(b1-4)GlcNAc(b1-3)Gal(b1-4)GlcNAc(b1-2)Man(a1-6)]Man(b1-4)GlcNAc(b1-4)[Fuc(a1-6)]GlcNAc", "in_short": "as §1"}}, "note": "The other results are listed elsewhere or left out.", "data": [{"binder": "B1", "values": [{"measurement": "glycan array binding signal (z-score)", "setting": "[1]", "result": -0.599}, {"measurement": "glycan array binding signal (z-score)", "setting": "[2]", "result": -0.272}, {"measurement": "glycan array binding signal (z-score)", "setting": "[3]", "result": -0.504}, {"measurement": "glycan array binding signal (z-score)", "setting": "[4]", "result": -1.15}, {"measurement": "glycan array binding signal (z-score)", "setting": "[5]", "result": 0.128}, {"measurement": "glycan array binding signal (z-score)", "setting": "[6]", "result": 1.03}, {"measurement": "glycan array binding signal (z-score)", "setting": "[7]", "result": -0.589}, {"measurement": "glycan array binding signal (z-score)", "setting": "[8]", "result": -0.93}, {"measurement": "glycan array binding signal (z-score)", "setting": "[9]", "result": 0.13}, {"measurement": "glycan array binding signal (z-score)", "setting": "[10]", "result": -0.541}, {"measurement": "glycan array binding signal (z-score)", "setting": "[11]", "result": 0.063}, {"measurement": "glycan array binding signal (z-score)", "setting": "[12]", "result": -0.405}, {"measurement": "glycan array binding signal (z-score)", "setting": "[13]", "result": -0.484}, {"measurement": "glycan array binding signal (z-score)", "setting": "[14]", "result": 0.668}, {"measurement": "glycan array binding signal (z-score)", "setting": "[15]", "result": 0.312}, {"measurement": "glycan array binding signal (z-score)", "setting": "[16]", "result": 0.029}, {"measurement": "glycan array binding signal (z-score)", "setting": "[17]", "result": 0.087}, {"measurement": "glycan array binding signal (z-score)", "setting": "[18]", "result": 1.22}, {"measurement": "glycan array binding signal (z-score)", "setting": "[19]", "result": 0.101}]}]}
